No constants are given. Whether binding was seen depends on the method and setting. Binding seen in cells or lysates may run through a third protein.
Biological target: T1, protein tyrosine phosphatase nonreceptor 21 (human) (UniProt Q16825)
T1 sequence: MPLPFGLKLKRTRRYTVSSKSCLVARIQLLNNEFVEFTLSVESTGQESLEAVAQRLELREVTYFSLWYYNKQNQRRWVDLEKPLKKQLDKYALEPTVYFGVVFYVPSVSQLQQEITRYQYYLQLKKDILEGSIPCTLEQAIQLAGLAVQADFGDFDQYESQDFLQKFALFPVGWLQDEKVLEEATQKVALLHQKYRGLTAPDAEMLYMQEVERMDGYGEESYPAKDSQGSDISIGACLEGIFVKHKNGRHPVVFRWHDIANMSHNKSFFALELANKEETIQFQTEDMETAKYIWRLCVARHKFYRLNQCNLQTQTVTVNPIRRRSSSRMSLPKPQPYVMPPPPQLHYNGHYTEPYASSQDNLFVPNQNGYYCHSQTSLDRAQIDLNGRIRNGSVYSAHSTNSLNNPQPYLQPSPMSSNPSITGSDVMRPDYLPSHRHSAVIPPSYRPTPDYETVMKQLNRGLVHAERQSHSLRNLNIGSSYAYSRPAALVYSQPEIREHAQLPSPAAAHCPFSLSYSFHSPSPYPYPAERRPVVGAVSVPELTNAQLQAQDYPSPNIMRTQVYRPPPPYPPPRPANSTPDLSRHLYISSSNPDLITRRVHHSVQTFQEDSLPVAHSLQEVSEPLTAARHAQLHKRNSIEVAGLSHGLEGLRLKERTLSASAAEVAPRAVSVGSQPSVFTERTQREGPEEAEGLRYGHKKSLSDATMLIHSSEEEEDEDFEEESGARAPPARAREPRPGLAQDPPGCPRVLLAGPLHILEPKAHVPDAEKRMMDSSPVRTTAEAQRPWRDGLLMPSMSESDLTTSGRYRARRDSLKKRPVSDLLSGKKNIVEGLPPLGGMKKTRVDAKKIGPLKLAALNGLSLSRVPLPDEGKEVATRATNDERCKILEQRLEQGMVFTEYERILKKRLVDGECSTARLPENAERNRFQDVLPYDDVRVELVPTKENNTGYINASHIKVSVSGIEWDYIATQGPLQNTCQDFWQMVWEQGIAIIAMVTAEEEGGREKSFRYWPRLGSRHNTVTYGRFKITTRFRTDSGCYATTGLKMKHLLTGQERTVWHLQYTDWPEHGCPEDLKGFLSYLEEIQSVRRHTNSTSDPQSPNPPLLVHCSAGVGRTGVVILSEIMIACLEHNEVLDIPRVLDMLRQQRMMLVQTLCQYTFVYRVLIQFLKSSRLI
Assay: co-IP; cells lysed in NP-40 buffer with PMSF and protease inhibitors; lysates incubated with antibody to Cdk1, Cyclin B1, PTPN21, GADD45A or control IgG overnight at 4 °C, then protein A/G beads for six hours; beads washed 5 times; western blot; control and PTPN21-overexpressing cells compared for Cdk1 and Cyclin B1

binding: no binding
B1: growth arrest and DNA damage-inducible 45α (protein, UniProt P24522 1-165)
chain: MTLEEFSAGEQKTERMDKVGDALEEVLSKALSQRTITVGVYEAAKLLNVDPDNVVLCLLAADEDDDRDVALQIHFTLIQAFCCENDINILRVSNPGRLAELLLLETDAGPAASEGAEQPPDLHCVLVTNPHSSQWKDPALSQLICFCRESRYMDQWVPVINLPER
